Laboratory results as given in patent US20120034672A1, “[…] LUCIFERASE VARIANT WITH PROLONGED BIOLUMINESCENCE” (priority 2009, published 2012).
Numbering of substitutions follows the chain as printed. Numbers in names are those of the source.

B1: Y97W: GLuc variant in which tyrosine (Y) at position 97 was mutated to tryptophan (W) (protein)
chain: MGVKVLFALICIAVAEAKPTENNEDFNIVAVASNFATTDLDADRGKLPGKKLPLEVLKEMEANARKAGCTRGCLICLSHIKCTPKMKKFIPGRCHTWEGDKESAQGGIGEAIVDIPEIPGFKDLEPMEQFIAQVDLCVDCTTGCLKGLANVQCSDLLKKWLPQRCATFASKIQGQVDKIKGAGGDKDEL
modifications: GLuc mutant (Y97W)
B2: I90L/I115L: GLuc with isoleucine at positions 90 and 115 replaced with leucine (protein)
chain: B1 chain with I90L, W97Y, I115L
modifications: GLuc mutant (I90L/I115L)
B3: F89W/I90L: GLuc with isoleucine 90 replaced with leucine and phenylalanine 89 with tryptophan (protein)
chain: B1 chain with F89W, I90L, W97Y
modifications: GLuc mutant (F89W/I90L); named 8990

Experiment: Luminescence spectrum of GLuc variants in COS-7 cell lysates (5-minute lysis, spectrophotometer)
Assay type: biochemical
Settings: coelenterazine
Experimental: Subsequently, cell lysates were prepared from the COS-7 cells in each well (5-minute lysis), and a spectrum was measured in the presence of a luciferase-specific substrate (coelenterazine), using a fluorescence spectrophotometer (F-7000, Hitachi), thereby examining the effect of the introduced mutation. FIGS. 4B-1 and 4C show the results.
Additionally, in the preparation of cell samples, the samples are immersed in a lysis solution for 5 minutes. This allows preparation of non-uniform samples of cells whose organelles are not lysed, by a quick process.

Row | Molecule | luminescence peak
1 | B1 | 486 nm
2 | B2 | 483 nm
3 | B3 | 481 nm
